Measurements as given in publication PMC4449194.
These are yes or no findings as the source states them, for the method shown. In cells and extracts the contact can be indirect. Some binding calls cover weakened binding; strength is not graded here. For some assays here: Sequences can lack the tags named with a protein. One block for each molecule: values may come before it.

Protein sequences, listed by entry. Tags and fused reporters are not part of them.
UniProt Q96EB6: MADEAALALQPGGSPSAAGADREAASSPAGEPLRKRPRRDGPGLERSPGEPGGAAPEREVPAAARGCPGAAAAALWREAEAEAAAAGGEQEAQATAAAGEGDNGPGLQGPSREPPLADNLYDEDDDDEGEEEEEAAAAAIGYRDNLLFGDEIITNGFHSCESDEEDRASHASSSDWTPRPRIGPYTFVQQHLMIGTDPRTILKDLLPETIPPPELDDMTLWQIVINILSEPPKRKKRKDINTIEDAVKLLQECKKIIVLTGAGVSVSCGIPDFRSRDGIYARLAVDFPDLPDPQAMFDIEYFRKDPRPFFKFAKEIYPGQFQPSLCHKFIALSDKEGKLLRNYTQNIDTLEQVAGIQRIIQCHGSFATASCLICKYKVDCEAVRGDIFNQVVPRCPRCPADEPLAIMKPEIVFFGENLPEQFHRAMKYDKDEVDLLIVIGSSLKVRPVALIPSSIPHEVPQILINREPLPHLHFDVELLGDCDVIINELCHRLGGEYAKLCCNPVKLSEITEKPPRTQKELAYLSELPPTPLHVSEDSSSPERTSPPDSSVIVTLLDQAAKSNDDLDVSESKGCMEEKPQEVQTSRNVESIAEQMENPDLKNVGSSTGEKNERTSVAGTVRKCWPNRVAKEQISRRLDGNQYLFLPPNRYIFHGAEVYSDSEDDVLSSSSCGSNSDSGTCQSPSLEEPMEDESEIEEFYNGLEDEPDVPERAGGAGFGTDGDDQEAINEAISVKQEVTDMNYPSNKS
UniProt P20226: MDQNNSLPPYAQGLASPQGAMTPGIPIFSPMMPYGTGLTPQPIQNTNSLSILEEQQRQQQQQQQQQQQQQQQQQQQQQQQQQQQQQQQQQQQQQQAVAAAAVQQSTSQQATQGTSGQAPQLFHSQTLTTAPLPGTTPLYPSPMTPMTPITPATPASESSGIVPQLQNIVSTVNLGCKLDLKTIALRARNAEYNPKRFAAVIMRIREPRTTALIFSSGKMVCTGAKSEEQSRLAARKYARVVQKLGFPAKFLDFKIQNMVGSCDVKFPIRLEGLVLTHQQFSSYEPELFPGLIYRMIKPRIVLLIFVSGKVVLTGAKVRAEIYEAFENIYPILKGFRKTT

Columns and labels:
GST-SIRT1 = GST-SIRT1 (UniProt Q96EB6); assay: pull-down; 2 ug GST-tagged protein immobilised on Glutathione-Sepharose 4B, incubated with in vitro synthesized 35S-labeled proteins for 4 h at 4°C in 120 mM KCl, 20 mM Tris-HCl pH 7.9, 5 mM MgCl2, 0.2 mM EDTA, 10% glycerol, 0.2% NP-40; SDS-PAGE and PhosphorImaging; only the target purified
[1] = target: T1, Flag-hTAFI110 (HEK293T) (human) (UniProt Q15572); assay: co-IP; Flag-hTAFI110 and GFP-hCdc14B co-expressed in HEK293T (nocodazole 80 ng/ml 23 h, released 30 min); bound to M2-agarose, 120 mM KCl, 0.5% Triton X-100; blot with anti-GFP
T1 sequence: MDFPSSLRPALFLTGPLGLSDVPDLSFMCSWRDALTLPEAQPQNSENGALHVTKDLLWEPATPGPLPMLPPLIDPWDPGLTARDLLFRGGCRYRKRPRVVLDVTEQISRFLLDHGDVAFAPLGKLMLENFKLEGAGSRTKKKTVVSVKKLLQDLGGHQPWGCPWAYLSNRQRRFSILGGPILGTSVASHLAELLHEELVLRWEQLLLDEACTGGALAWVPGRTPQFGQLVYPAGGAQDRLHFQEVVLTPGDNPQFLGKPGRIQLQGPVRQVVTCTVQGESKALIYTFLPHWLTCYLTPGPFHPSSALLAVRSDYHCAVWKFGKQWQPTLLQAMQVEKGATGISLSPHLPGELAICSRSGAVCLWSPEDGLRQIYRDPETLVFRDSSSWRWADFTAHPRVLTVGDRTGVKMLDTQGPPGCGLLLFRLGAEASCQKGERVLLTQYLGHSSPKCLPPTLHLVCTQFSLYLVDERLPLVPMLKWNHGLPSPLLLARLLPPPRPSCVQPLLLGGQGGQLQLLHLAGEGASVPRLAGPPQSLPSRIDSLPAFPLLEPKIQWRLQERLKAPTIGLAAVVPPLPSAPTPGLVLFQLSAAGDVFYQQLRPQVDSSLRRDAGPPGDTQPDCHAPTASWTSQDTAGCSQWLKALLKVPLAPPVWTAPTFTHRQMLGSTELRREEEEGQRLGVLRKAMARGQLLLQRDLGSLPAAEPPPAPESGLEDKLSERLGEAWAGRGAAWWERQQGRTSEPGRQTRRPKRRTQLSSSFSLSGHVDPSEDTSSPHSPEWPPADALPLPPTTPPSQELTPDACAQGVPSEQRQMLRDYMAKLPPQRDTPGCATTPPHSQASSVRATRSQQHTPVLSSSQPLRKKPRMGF

binding (GST-SIRT1): binds
Molecule: 35S-labeled hTBP (from UniProt P20226 1-339)

binding [1]: binds
B1: GFP-hCdc14B (enzyme, UniProt O60729 1-498)
chain: MKRKSERRSSWAAAPPCSRRCSSTSPGVKKIRSSTQQDPRRRDPQDDVYLDITDRLCFAILYSRPKSASNVHYFSIDNELEYENFYADFGPLNLAMVYRYCCKINKKLKSITMLRKKIVHFTGSDQRKQANAAFLVGCYMVIYLGRTPEEAYRILIFGETSYIPFRDAAYGSCNFYITLLDCFHAVKKAMQYGFLNFNSFNLDEYEHYEKAENGDLNWIIPDRFIAFCGPHSRARLESGYHQHSPETYIQYFKNHNVTTIIRLNKRMYDAKRFTDAGFDHHDLFFADGSTPTDAIVKEFLDICENAEGAIAVHCKAGLGRTGTLIACYIMKHYRMTAAETIAWVRICRPGSVIGPQQQFLVMKQTNLWLEGDYFRQKLKGQENGQHRAAFSKLLSGVDDISINGVENQDQQEPEPYSDDDEINGVTQGDRLRALKSRRQSKTNAIPLTVILQSSVQSCKTSEPNISGSAGITKRTTRSASRKSSVKSLSISRTKTVLR
